Consider 3 compounds from patent US20080281105A1, “Novel Quinolinium Salts and Derivatives” (IMMUSOL INCORPORATED, priority 2005, published 2008).

Data set [1] deals with HCT116 colon cancer cells. The conditions noted are these: nude mice, HCT116 xenograft, dosed orally or i.p.; minimal change in body weight. The source says: Female athymic nude (nu/nu) mice were inoculated with HCT116 colon cancer cells, and the tumors were allowed to grow to a volume of about 150 mm^3.
Data set [2] has as its system various cancer cell lines. The settings on record: reported by Esumi; cited from earlier work.

Counter-ions that a name gives are not always drawn.

In the case of `Cc1cc(/C=C/c2ccc3cc(N(C)C)ccc3[n+]2C)c(C)n1-c1ccccc1` [Example 1, Pyrvinium Phosphate], the “toxicity (change in body weight)” value in data set [1] is “no apparent toxicity”. In addition, the solubility (commonly how much of the substance goes into solution per volume) in the data set “physchem” (water, thermodynamic from solid) was not below 1000 µg/mL. Turning to `Cc1cc(/C=C/c2ccc3cc(N(C)C)ccc3[n+]2C)c(C)n1-c1ccccc1` [pyrvinium pamoate], the “toxicity for cancer cell lines during glucose starvation” value in data set [2] is given as “preferential toxicity”. Consider `Cc1cc(/C=C/c2ccc3cc(N(C)C)ccc3[n+]2C)c(C)n1-c1ccccc1` [Example 2, Pyrvinium Sulfate], for which, in “physchem” (saline or isotonic), the solubility was 1000 µg/mL.
